Laboratory results taken from article doi:10.1101/824458 (bioRxiv, 2019).
These are yes or no findings as the source states them, for the method shown. Tags and fused reporters may be left off the sequences shown.

Target: T1, viperin-ΔN50 (residues 50-361), recombinant, C-terminal His6-tagged, iron-sulfur cluster reconstituted (human) (UniProt Q8WXG1)
T1 sequence: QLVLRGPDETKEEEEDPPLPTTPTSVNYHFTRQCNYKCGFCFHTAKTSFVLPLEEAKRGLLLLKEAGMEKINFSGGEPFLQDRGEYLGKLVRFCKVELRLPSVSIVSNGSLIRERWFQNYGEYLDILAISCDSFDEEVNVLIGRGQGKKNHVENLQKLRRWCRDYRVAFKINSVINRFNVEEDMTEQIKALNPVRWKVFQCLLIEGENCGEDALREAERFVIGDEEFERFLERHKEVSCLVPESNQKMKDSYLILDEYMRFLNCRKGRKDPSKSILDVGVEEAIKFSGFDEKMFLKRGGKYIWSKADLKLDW
Experiment: cross-linking

B1: VAP-33-ΔC20 (recombinant human VAP-33 protein, residues 1-227) (domain or fragment, UniProt Q9P0L0 1-227, looked up)
chain: MASASGAMAKHEQILVLDPPTDLKFKGPFTDVVTTNLKLRNPSDRKVCFKVKTTAPRRYCVRPNSGIIDPGSTVTVSVMLQPFDYDPNEKSKHKFMVQTIFAPPNTSDMEAVWKEAKPDELMDSKLRCVFEMPNENDKLNDMEPSKAVPLNASKQDGPMPKPHSVSLNDTETRKLMEECKRLQGEMMKLSEENRHLRDEGLRLRKVAHSDKPGSTSTASFRDNVTSP
binding: no binding
